# Reference: ChEMBL document CHEMBL5674883, “The Heterochromatin Landscape in Migrating Cells and the Importance of H3K27me3 for Associated Transcriptome Alterations” (Cells, 2018)
# Sequences of proteins named here, by UniProt entry; tags and fusion partners are left off.
# UniProt Q61188, whole entry: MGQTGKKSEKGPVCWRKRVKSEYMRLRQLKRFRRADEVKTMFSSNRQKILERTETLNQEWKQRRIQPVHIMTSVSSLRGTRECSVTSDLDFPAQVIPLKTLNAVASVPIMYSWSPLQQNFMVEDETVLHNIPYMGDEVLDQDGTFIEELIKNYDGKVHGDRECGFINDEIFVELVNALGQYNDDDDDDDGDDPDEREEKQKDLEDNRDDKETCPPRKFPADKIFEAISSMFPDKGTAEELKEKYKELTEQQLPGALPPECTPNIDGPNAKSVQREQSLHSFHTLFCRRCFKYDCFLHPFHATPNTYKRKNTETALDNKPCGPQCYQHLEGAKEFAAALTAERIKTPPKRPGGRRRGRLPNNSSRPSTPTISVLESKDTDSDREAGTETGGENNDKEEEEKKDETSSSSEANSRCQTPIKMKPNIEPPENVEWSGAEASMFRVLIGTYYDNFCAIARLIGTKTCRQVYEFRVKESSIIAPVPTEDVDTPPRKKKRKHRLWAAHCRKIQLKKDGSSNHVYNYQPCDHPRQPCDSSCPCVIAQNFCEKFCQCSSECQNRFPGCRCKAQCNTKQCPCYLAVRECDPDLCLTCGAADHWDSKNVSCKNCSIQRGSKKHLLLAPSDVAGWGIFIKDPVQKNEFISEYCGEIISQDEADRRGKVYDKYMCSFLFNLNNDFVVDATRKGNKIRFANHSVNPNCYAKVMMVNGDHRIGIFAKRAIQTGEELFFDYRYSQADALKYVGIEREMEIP
# Further values from the same series stand in other lists.
# Legend:
# Type in all cases: cell-based
# [1] = biological target: T1, RNA polymerase II (Mus musculus) (UniProt P08775+Q8CFI7+P97760+A0A3Q4L2S8+Q80UW8+P61219+P62488+Q923G2+P60898+O08740+Q63871+P62876); assay: Inhibition of RNA polymerase II in mouse B16-F1 migrating cells assessed as fold change in Zfp729b-RNA stability at 0.1 mM measured by ChIP-seq analysis relative to control cells
# [2] = biological target: T1, RNA polymerase II (Mus musculus); assay: Inhibition of RNA polymerase II in mouse B16-F1 migrating cells assessed as fold change in Il13ra1-RNA stability at 0.1 mM measured by ChIP-seq analysis relative to control cells
# [3] = biological target: T1, RNA polymerase II (Mus musculus); assay: Inhibition of RNA polymerase II in mouse B16-F1 migrating cells assessed as fold change in Aldoa-RNA stability at 0.1 mM measured by ChIP-seq analysis relative to control cells
# [4] = biological target: T1, RNA polymerase II (Mus musculus); assay: Inhibition of RNA polymerase II in mouse B16-F1 migrating cells assessed as fold change in Atad2-RNA stability at 0.1 mM measured by ChIP-seq analysis relative to control cells
# [5] = biological target: T1, RNA polymerase II (Mus musculus); assay: Inhibition of RNA polymerase II in mouse B16-F1 migrating cells assessed as fold change in Phldb2-RNA stability at 0.1 mM measured by ChIP-seq analysis relative to control cells
# [6] = biological target: T1, RNA polymerase II (Mus musculus); assay: Inhibition of RNA polymerase II in mouse B16-F1 migrating cells assessed as fold change in Celf2-RNA stability at 0.1 mM measured by ChIP-seq analysis relative to control cells
# [7] = biological target: T1, RNA polymerase II (Mus musculus); assay: Inhibition of RNA polymerase II in mouse B16-F1 migrating cells assessed as fold change in Tank-RNA stability at 0.1 mM measured by ChIP-seq analysis relative to control cells
# [8] = biological target: T1, RNA polymerase II (Mus musculus); assay: Inhibition of RNA polymerase II in mouse B16-F1 migrating cells assessed as fold change in Nin-RNA stability at 0.1 mM measured by ChIP-seq analysis relative to control cells
# [9] = biological target: T1, RNA polymerase II (Mus musculus); assay: Inhibition of RNA polymerase II in mouse B16-F1 migrating cells assessed as fold change in Snx13-RNA stability at 0.1 mM measured by ChIP-seq analysis relative to control cells
# [10] = biological target: T1, RNA polymerase II (Mus musculus); assay: Inhibition of RNA polymerase II in mouse B16-F1 migrating cells assessed as fold change in Smg8-RNA stability at 0.1 mM measured by ChIP-seq analysis relative to control cells
# [11] = biological target: T1, RNA polymerase II (Mus musculus); assay: Inhibition of RNA polymerase II in mouse B16-F1 migrating cells assessed as fold change in Casp8ap2-RNA stability at 0.1 mM measured by ChIP-seq analysis relative to control cells
# [12] = biological target: T1, RNA polymerase II (Mus musculus); assay: Inhibition of RNA polymerase II in mouse B16-F1 migrating cells assessed as fold change in Pum2-RNA stability at 0.1 mM measured by ChIP-seq analysis relative to control cells
# [13] = biological target: T1, RNA polymerase II (Mus musculus); assay: Inhibition of RNA polymerase II in mouse B16-F1 migrating cells assessed as fold change in Nt5dc1-RNA stability at 0.1 mM measured by ChIP-seq analysis relative to control cells
# [14] = biological target: T1, RNA polymerase II (Mus musculus); assay: Inhibition of RNA polymerase II in mouse B16-F1 migrating cells assessed as fold change in 4930447F24Rik-RNA stability at 0.1 mM measured by ChIP-seq analysis relative to control cells
# [15] = biological target: T1, RNA polymerase II (Mus musculus); assay: Inhibition of RNA polymerase II in mouse B16-F1 migrating cells assessed as fold change in Taf1d-RNA stability at 0.1 mM measured by ChIP-seq analysis relative to control cells
# [16] = biological target: T1, RNA polymerase II (Mus musculus); assay: Inhibition of RNA polymerase II in mouse B16-F1 migrating cells assessed as fold change in Rbm7-RNA stability at 0.1 mM measured by ChIP-seq analysis relative to control cells
# [17] = biological target: Histone-lysine N-methyltransferase EZH2 (Mus musculus) (UniProt Q61188); assay: Inhibition of EZH2 in mouse B16-F1 migrating cells assessed as fold change in H3K27me3-buffered regulated Clk4-mRNA expression at 3 uM measured by ChIP-seq analysis relative to control cells
# [18] = biological target: Histone-lysine N-methyltransferase EZH2 (Mus musculus) (UniProt Q61188); assay: Inhibition of EZH2 in mouse B16-F1 migrating cells assessed as fold change in H3K27me3-buffered regulated 9330159F19Rik-mRNA expression at 3 uM measured by ChIP-seq analysis relative to control cells
# [19] = biological target: Histone-lysine N-methyltransferase EZH2 (Mus musculus) (UniProt Q61188); assay: Inhibition of EZH2 in mouse B16-F1 migrating cells assessed as fold change in H3K27me3-dependent regulated Junb-mRNA expression at 3 uM measured by ChIP-seq analysis relative to control cells
# [20] = biological target: Histone-lysine N-methyltransferase EZH2 (Mus musculus) (UniProt Q61188); assay: Inhibition of EZH2 in mouse B16-F1 migrating cells assessed as fold change in H3K27me3-buffered regulated C330027C09Rik-mRNA expression at 3 uM measured by ChIP-seq analysis relative to control cells
# [21] = biological target: Histone-lysine N-methyltransferase EZH2 (Mus musculus) (UniProt Q61188); assay: Inhibition of EZH2 in mouse B16-F1 migrating cells assessed as fold change in H3K27me3-independent regulated Ankrd37-mRNA expression at 3 uM measured by ChIP-seq analysis relative to control cells
# [22] = biological target: Histone-lysine N-methyltransferase EZH2 (Mus musculus) (UniProt Q61188); assay: Inhibition of EZH2 in mouse B16-F1 migrating cells assessed as fold change in H3K27me3-buffered regulated Lrfn1-mRNA expression at 3 uM measured by ChIP-seq analysis relative to control cells
# [23] = biological target: Histone-lysine N-methyltransferase EZH2 (Mus musculus) (UniProt Q61188); assay: Inhibition of EZH2 in mouse B16-F1 migrating cells assessed as fold change in H3K27me3-buffered regulated Rock2-mRNA expression at 3 uM measured by ChIP-seq analysis relative to control cells
# [24] = biological target: Histone-lysine N-methyltransferase EZH2 (Mus musculus) (UniProt Q61188); assay: Inhibition of EZH2 in mouse B16-F1 migrating cells assessed as fold change in H3K27me3-buffered regulated Zkscan5-mRNA expression at 3 uM measured by ChIP-seq analysis relative to control cells
# [25] = biological target: Histone-lysine N-methyltransferase EZH2 (Mus musculus) (UniProt Q61188); assay: Inhibition of EZH2 in mouse B16-F1 migrating cells assessed as fold change in H3K27me3-dependent regulated Trib1-mRNA expression at 3 uM measured by ChIP-seq analysis relative to control cells
# [26] = biological target: Histone-lysine N-methyltransferase EZH2 (Mus musculus) (UniProt Q61188); assay: Inhibition of EZH2 in mouse B16-F1 migrating cells assessed as fold change in H3K27me3-dependent regulated Arrdc3-mRNA expression at 3 uM measured by ChIP-seq analysis relative to control cells
# [27] = biological target: Histone-lysine N-methyltransferase EZH2 (Mus musculus) (UniProt Q61188); assay: Inhibition of EZH2 in mouse B16-F1 migrating cells assessed as fold change in H3K27me3-independent regulated Cited1-mRNA expression at 3 uM measured by ChIP-seq analysis relative to control cells
# [28] = biological target: Histone-lysine N-methyltransferase EZH2 (Mus musculus) (UniProt Q61188); assay: Inhibition of EZH2 in mouse B16-F1 migrating cells assessed as fold change in H3K27me3-buffered regulated Anxa4-mRNA expression at 3 uM measured by ChIP-seq analysis relative to control cells
# [29] = biological target: Histone-lysine N-methyltransferase EZH2 (Mus musculus) (UniProt Q61188); assay: Inhibition of EZH2 in mouse B16-F1 migrating cells assessed as fold change in H3K27me3-dependent regulated Tcaim-mRNA expression at 3 uM measured by ChIP-seq analysis relative to control cells
# [30] = biological target: Histone-lysine N-methyltransferase EZH2 (Mus musculus) (UniProt Q61188); assay: Inhibition of EZH2 in mouse B16-F1 migrating cells assessed as fold change in H3K27me3-buffered regulated Cntrl-mRNA expression at 3 uM measured by ChIP-seq analysis relative to control cells
structure (smiles),measurement,setting,value
OC[C@H]1O[C@@H](n2cnc3cc(Cl)c(Cl)cc32)[C@H](O)[C@@H]1O,log2FC,[1],-0.9
same,log2FC,[2],-0.69
same,log2FC,[3],0.65
same,log2FC,[4],-0.97
same,log2FC,[5],-0.51
same,log2FC,[6],-0.4
same,log2FC,[7],-0.67
same,log2FC,[8],-0.59
same,log2FC,[9],-0.61
same,log2FC,[10],-0.73
same,log2FC,[11],-0.81
same,log2FC,[12],-0.54
same,log2FC,[13],-0.5
same,log2FC,[14],1.38
same,log2FC,[15],-0.72
same,log2FC,[16],-0.49
CCCc1cc(C)[nH]c(=O)c1CNC(=O)c1cc(-c2ccnc(N3CCN(C)CC3)c2)cc2c1cnn2C(C)C,log2FC,[17],-0.47
same,log2FC,[18],-1.1
same,log2FC,[19],0.19
same,log2FC,[20],-0.43
same,log2FC,[21],-1.57
same,log2FC,[22],-0.72
same,log2FC,[23],-0.4
same,log2FC,[24],0.41
same,log2FC,[25],0.24
same,log2FC,[26],-0.35
same,log2FC,[27],0.55
same,log2FC,[28],0.41
same,log2FC,[29],-0.25
same,log2FC,[30],-0.43
